Results on 1 molecule are retold here after PMC9910802.

No constants are given. Whether binding was seen depends on the method and setting. Binding seen in cells or lysates may run through a third protein. Here binding means that the protein was enriched with, or labelled near, the bait; the list need not be complete. No binding means not detected with the bait. Tags and fused reporters may be left off the sequences shown.

This experiment addresses T1, Verticillium transcription activator of adhesion 3 (Vta3) fused to GFP (Verticillium dahliae) (UniProt G2WUC4).
T1 sequence: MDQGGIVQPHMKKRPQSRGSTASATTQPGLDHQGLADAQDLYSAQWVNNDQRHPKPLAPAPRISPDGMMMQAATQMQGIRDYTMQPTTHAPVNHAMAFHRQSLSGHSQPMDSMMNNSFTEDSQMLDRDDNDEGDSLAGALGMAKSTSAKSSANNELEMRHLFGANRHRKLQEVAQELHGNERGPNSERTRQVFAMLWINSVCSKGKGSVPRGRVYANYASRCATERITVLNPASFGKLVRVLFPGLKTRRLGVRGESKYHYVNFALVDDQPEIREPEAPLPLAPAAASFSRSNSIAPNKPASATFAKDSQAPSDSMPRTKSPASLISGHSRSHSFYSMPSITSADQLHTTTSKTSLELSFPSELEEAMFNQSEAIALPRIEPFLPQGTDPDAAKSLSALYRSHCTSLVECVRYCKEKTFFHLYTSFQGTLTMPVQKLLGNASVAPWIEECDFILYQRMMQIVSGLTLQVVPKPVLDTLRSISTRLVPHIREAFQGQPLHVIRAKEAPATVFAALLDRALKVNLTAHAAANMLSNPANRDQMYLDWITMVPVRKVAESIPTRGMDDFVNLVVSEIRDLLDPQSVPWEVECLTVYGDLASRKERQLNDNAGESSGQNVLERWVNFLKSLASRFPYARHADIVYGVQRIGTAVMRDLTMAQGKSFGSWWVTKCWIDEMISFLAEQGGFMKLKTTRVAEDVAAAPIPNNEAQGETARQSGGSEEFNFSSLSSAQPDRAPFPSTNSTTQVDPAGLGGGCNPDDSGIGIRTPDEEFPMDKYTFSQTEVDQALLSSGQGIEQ
The experiment can be described thus: affinity purification with mass spectrometry; GFP-Trap Agarose beads (15 ul) on protein extracts of the VTA3-GFP expressing strain grown five days in liquid PDM at 25°C; controls: wild-type and wild-type overexpressing GFP; LC/MS, enrichment of Vta3-GFP versus wild-type.

B1: Master transcription factor 1 (Mtf1) (protein, UniProt G2WVT2 1-321)
chain: MHHYISNTQGATTTQYAYVPQPPPSPPMDESTKCSLPSISNLLGLADQGSPTSETHPQNQQVLKGEAVSAKPETRPSSSHYGGSHSQTRANFPPTPPMSTDASFDGYNSPSTRSVSQMSAVSAPHPHNYYYETTPPLEDVHHQHQRAMSHTPAARLPIHQTTPYPPPASSHYPSASAAASSYLPPHHQQPQHHHSVGPVPFYPPPQAQITSLYYQRPLPAAFPPSVAPPTMLGGPNPWQHHHYISPSAAASFPQSQDRYVCPTCNKAFSRPSSLRIHSHSHTGEKPFKCPHGGCGKAFSVRSNMKRHERGCHSFDGAAPVS
As to B1, the binding entry is reported as “no binding”.
